# Laboratory results from paper PMC11323535.
# By UniProt entry, the sequences of proteins in these tests, tags left out. Where a name states a change or a piece, a line headed by the entry shows the natural chain unless it says otherwise. Residues count along the entry.
# UniProt Q8KH85: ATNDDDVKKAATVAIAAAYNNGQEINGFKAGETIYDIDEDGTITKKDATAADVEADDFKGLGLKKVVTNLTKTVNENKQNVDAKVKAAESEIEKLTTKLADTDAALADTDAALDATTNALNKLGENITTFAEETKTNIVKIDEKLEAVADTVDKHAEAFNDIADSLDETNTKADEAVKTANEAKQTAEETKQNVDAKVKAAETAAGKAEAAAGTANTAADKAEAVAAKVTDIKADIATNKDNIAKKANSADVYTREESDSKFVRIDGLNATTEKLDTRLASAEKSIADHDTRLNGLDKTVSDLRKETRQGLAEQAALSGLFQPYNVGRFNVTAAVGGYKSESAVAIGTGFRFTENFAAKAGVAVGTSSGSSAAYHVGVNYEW
# recombinant soluble NadA (NadA_(24–350)): residues 1-327 of Q8KH85
# NadA_(24–170): residues 1-147 of Q8KH85
# These are yes or no findings as the source states them, for the method shown. Some entries that bind do so weakly or less than the wild type. Tags and fused reporters may be left off the sequences shown.
# Tests used:
# [1] = target: recombinant soluble NadA (NadA_(24–350)) (Neisseria meningitidis strain 2996) (UniProt Q8KH85); assay: SPR; binding analysis, Biacore 8K; NadA ectodomain, head domain or stalk domain amine-coupled on CM5; Fc-tagged Siglecs injected at 100 nM, 25°C, HSB-EP+ (10 mM HEPES pH 7.4, 0.15 M NaCl, 3 mM EDTA, 0.005% P20); both purified
# [2] = target: NadA_(24–170) (Neisseria meningitidis strain 2996) (UniProt Q8KH85); assay: as above
# [3] = target: recombinant soluble NadA (NadA_(24–350)) (Neisseria meningitidis strain 2996) (UniProt Q8KH85); assay: HDX-MS; rNadA alone or with Siglec-5 (NadA:Siglec-5 1:3.8), 30 min preincubation; deuterium labelling in PBS at room temperature (15 s-1,000 min) and on ice (4 s-1 min); both purified
Binder,binding [1],binding [2],binding [3]
"Fc tagged recombinant human Siglec-14 (Fc fusion, UniProt Q08ET2 17-358) EKPVYELQVQKSVTVQEGLCVLVPCSFSYPWRSWYSSPPLYVYWFRDGEIPYYAEVVATNNPDRRVKPETQGRFRLLGDVQKKNCSLSIGDARMEDTGSYFFRVERGRDVKYSYQQNKLNLEVTALIEKPDIHFLEPLESGRPTRLSCSLPGSCEAGPPLTFSWTGNALSPLDPETTRSSELTLTPRPEDHGTNLTCQVKRQGAQVTTERTVQLNVSYAPQNLAISIFFRNGTGTALRILSNGMSVPIQEGQSLFLACTVDSNPPASLSWFREGKALNPSQTSMSGTLELPNIGAREGGEFTCRVQHPLGSQHLSFILSVQRSSSSCICVTEKQQGSWPLVL",binds,binds,–
"Fc tagged recombinant human Siglec-5 (Fc fusion, UniProt O15389 17-441) EKPVYELQVQKSVTVQEGLCVLVPCSFSYPWRSWYSSPPLYVYWFRDGEIPYYAEVVATNNPDRRVKPETQGRFRLLGDVQKKNCSLSIGDARMEDTGSYFFRVERGRDVKYSYQQNKLNLEVTALIEKPDIHFLEPLESGRPTRLSCSLPGSCEAGPPLTFSWTGNALSPLDPETTRSSELTLTPRPEDHGTNLTCQMKRQGAQVTTERTVQLNVSYAPQTITIFRNGIALEILQNTSYLPVLEGQALRLLCDAPSNPPAHLSWFQGSPALNATPISNTGILELRRVRSAEEGGFTCRAQHPLGFLQIFLNLSVYSLPQLLGPSCSWEAEGLHCRCSFRARPAPSLCWRLEEKPLEGNSSQGSFKVNSSSAGPWANSSLILHGGLSSDLKVSCKAWNIYGSQSGSVLLLQGRSNLGTGVVPAAL",binds,binds,binds
